Laboratory results reported in patent US20180305449A1 (ONCOMED PHARMACEUTICALS, published 2018).
Results are given in words; binding and its absence hold for the method and conditions named. Some results given as binding are weak or reduced against the parent protein; the word gives no strength.

Sequences of proteins named here, by UniProt entry; tags and fusion partners are left off. Residues count along the entry.
UniProt Q9NR61, residues 27-522: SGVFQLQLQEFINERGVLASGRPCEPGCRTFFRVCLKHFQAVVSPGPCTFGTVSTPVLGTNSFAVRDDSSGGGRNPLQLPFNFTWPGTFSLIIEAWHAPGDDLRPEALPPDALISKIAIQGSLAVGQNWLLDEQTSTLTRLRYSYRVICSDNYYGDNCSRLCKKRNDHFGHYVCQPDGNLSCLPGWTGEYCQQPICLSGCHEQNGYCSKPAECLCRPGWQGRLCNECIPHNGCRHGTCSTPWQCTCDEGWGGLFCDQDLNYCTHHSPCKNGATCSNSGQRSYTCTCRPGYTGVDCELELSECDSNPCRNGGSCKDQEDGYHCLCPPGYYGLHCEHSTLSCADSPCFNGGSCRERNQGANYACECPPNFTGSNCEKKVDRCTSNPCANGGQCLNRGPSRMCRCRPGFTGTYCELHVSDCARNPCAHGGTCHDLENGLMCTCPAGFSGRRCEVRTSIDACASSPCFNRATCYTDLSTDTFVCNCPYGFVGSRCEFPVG

B1: anti-VEGF/anti-DLL4 bispecific antibody 219R45-MB-21R83 (bispecific antibody, human IgG2)
heavy 1: QVQLVQSGAEVKKPGASVKVSCKASGYTFTNYWMHWVRQAPGQGLEWMGDINPSNGRTSYKEKFKRRVTLSVDKSSSTAYMELSSLRSEDTAVYFCTIHYDDKYYPLMDYWGQGTLVTVSSASTKGPSVFPLAPCSRSTSESTAALGCLVKDYFPEPVTVSWNSGALTSGVHTFPAVLQSSGLYSLSSVVTVPSSNFGTQTYTCNVDHKPSNTKVDKTVERKCCVECPPCPAPPVAGPSVFLFPPKPKDTLMISRTPEVTCVVVDVSHEDPEVQFNWYVDGVEVHNAKTKPREEQFNSTFRVVSVLTVVHQDWLNGKEYKCKVSNKGLPAPIEKTISKTKGQPREPQVYTLPPSREKMTKNQVSLTCLVKGFYPSDIAVEWESNGQPENNYKTTPPMLKSDGSFFLYSKLTVDKSRWQQGNVFSCSVMHEALHNHYTQKSLSLSPGK
heavy 2: QVQLVQSGAEVKKPGASVKISCKASGYSFTAYYIHWVKQAPGQGLEWIGYISNYNRATNYNQKFKGRVTFTTDTSTSTAYMELRSLRSDDTAVYYCARDYDYDVGMDYWGQGTLVTVSSASTKGPSVFPLAPCSRSTSESTAALGCLVKDYFPEPVTVSWNSGALTSGVHTFPAVLQSSGLYSLSSVVTVPSSNFGTQTYTCNVDHKPSNTKVDKTVERKCCVECPPCPAPPVAGPSVFLFPPKPKDTLMISRTPEVTCVVVDVSHEDPEVQFNWYVDGVEVHNAKTKPREEQFNSTFRVVSVLTVVHQDWLNGKEYKCKVSNKGLPAPIEKTISKTKGQPREPQVYTLPPSREEMTKNQVSLTCLVEGFYPSDIAVEWESNGQPENNYKTTPPMLDSDGSFFLYSELTVDKSRWQQGNVFSCSVMHEALHNHYTQKSLSLSPGK
light: DIVMTQSPDSLAVSLGERATISCRASESVDNYGISFMKWFQQKPGQPPKLLIYAASNQGSGVPDRFSGSGSGTDFTLTISSLQAEDVAVYYCQQSKEVPWTFGGGTKVEIKRTVAAPSVIFPPSDEQLKSGTASVVCLLNNFYPREAKVQWKVDNALQSGNSQESVTEQDSKDSTYSLSSTLTLSKADYEKHKVYACEVTHQGLSSPVTKSFNRGEC
notes: Monovalent/bispecific IgG2 heterodimer with charge-modified CH3 domains and two identical light chains
B2: anti-VEGF/anti-DLL4 bispecific antibody 219R45-MB-21R79 (bispecific antibody, human IgG2)
heavy 1: QVQLVQSGAEVKKPGASVKVSCKASGYTFTNYWMHWVRQAPGQGLEWMGDINPSNGRTSYKEKFKRRVTLSVDKSSSTAYMELSSLRSEDTAVYFCTIHYDDKYYPLMDYWGQGTLVTVSSASTKGPSVFPLAPCSRSTSESTAALGCLVKDYFPEPVTVSWNSGALTSGVHTFPAVLQSSGLYSLSSVVTVPSSNFGTQTYTCNVDHKPSNTKVDKTVERKCCVECPPCPAPPVAGPSVFLFPPKPKDTLMISRTPEVTCVVVDVSHEDPEVQFNWYVDGVEVHNAKTKPREEQFNSTFRVVSVLTVVHQDWLNGKEYKCKVSNKGLPAPIEKTISKTKGQPREPQVYTLPPSREKMTKNQVSLTCLVKGFYPSDIAVEWESNGQPENNYKTTPPMLKSDGSFFLYSKLTVDKSRWQQGNVFSCSVMHEALHNHYTQKSLSLSPGK
heavy 2: QVQLVQSGAEVKKPGASVKISCKASGYSFTAYYIHWVKQAPGQGLEWIGYIANYNRATNYNQKFKGRVTFTTDTSTSTAYMELRSLRSDDTAVYYCARDYDYDVGMDYWGQGTLVTVSSASTKGPSVFPLAPCSRSTSESTAALGCLVKDYFPEPVTVSWNSGALTSGVHTFPAVLQSSGLYSLSSVVTVPSSNFGTQTYTCNVDHKPSNTKVDKTVERKCCVECPPCPAPPVAGPSVFLFPPKPKDTLMISRTPEVTCVVVDVSHEDPEVQFNWYVDGVEVHNAKTKPREEQFNSTFRVVSVLTVVHQDWLNGKEYKCKVSNKGLPAPIEKTISKTKGQPREPQVYTLPPSREEMTKNQVSLTCLVEGFYPSDIAVEWESNGQPENNYKTTPPMLDSDGSFFLYSELTVDKSRWQQGNVFSCSVMHEALHNHYTQKSLSLSPGK
light: DIVMTQSPDSLAVSLGERATISCRASESVDNYGISFMKWFQQKPGQPPKLLIYAASNQGSGVPDRFSGSGSGTDFTLTISSLQAEDVAVYYCQQSKEVPWTFGGGTKVEIKRTVAAPSVIFPPSDEQLKSGTASVVCLLNNFYPREAKVQWKVDNALQSGNSQESVTEQDSKDSTYSLSSTLTLSKADYEKHKVYACEVTHQGLSSPVTKSFNRGEC
notes: as for B1
B3: anti-VEGF/anti-DLL4 bispecific antibody 219R45-MB-21M18 (bispecific antibody, human IgG2)
heavy 1: QVQLVQSGAEVKKPGASVKVSCKASGYTFTNYWMHWVRQAPGQGLEWMGDINPSNGRTSYKEKFKRRVTLSVDKSSSTAYMELSSLRSEDTAVYFCTIHYDDKYYPLMDYWGQGTLVTVSSASTKGPSVFPLAPCSRSTSESTAALGCLVKDYFPEPVTVSWNSGALTSGVHTFPAVLQSSGLYSLSSVVTVPSSNFGTQTYTCNVDHKPSNTKVDKTVERKCCVECPPCPAPPVAGPSVFLFPPKPKDTLMISRTPEVTCVVVDVSHEDPEVQFNWYVDGVEVHNAKTKPREEQFNSTFRVVSVLTVVHQDWLNGKEYKCKVSNKGLPAPIEKTISKTKGQPREPQVYTLPPSREKMTKNQVSLTCLVKGFYPSDIAVEWESNGQPENNYKTTPPMLKSDGSFFLYSKLTVDKSRWQQGNVFSCSVMHEALHNHYTQKSLSLSPGK
heavy 2: QVQLVQSGAEVKKPGASVKISCKASGYSFTAYYIHWVKQAPGQGLEWIGYISSYNGATNYNQKFKGRVTFTTDTSTSTAYMELRSLRSDDTAVYYCARDYDYDVGMDYWGQGTLVTVSSASTKGPSVFPLAPCSRSTSESTAALGCLVKDYFPEPVTVSWNSGALTSGVHTFPAVLQSSGLYSLSSVVTVPSSNFGTQTYTCNVDHKPSNTKVDKTVERKCCVECPPCPAPPVAGPSVFLFPPKPKDTLMISRTPEVTCVVVDVSHEDPEVQFNWYVDGVEVHNAKTKPREEQFNSTFRVVSVLTVVHQDWLNGKEYKCKVSNKGLPAPIEKTISKTKGQPREPQVYTLPPSREEMTKNQVSLTCLVEGFYPSDIAVEWESNGQPENNYKTTPPMLDSDGSFFLYSELTVDKSRWQQGNVFSCSVMHEALHNHYTQKSLSLSPGK
light: DIVMTQSPDSLAVSLGERATISCRASESVDNYGISFMKWFQQKPGQPPKLLIYAASNQGSGVPDRFSGSGSGTDFTLTISSLQAEDVAVYYCQQSKEVPWTFGGGTKVEIKRTVAAPSVIFPPSDEQLKSGTASVVCLLNNFYPREAKVQWKVDNALQSGNSQESVTEQDSKDSTYSLSSTLTLSKADYEKHKVYACEVTHQGLSSPVTKSFNRGEC
notes: Monovalent/bispecific (MB) IgG2 heterodimer with charge-modified CH3 domains and two identical light chains
B4: anti-VEGF/anti-DLL4 bispecific antibody 219R45-MB-21R75 (bispecific antibody, human IgG2)
heavy 1: QVQLVQSGAEVKKPGASVKVSCKASGYTFTNYWMHWVRQAPGQGLEWMGDINPSNGRTSYKEKFKRRVTLSVDKSSSTAYMELSSLRSEDTAVYFCTIHYDDKYYPLMDYWGQGTLVTVSSASTKGPSVFPLAPCSRSTSESTAALGCLVKDYFPEPVTVSWNSGALTSGVHTFPAVLQSSGLYSLSSVVTVPSSNFGTQTYTCNVDHKPSNTKVDKTVERKCCVECPPCPAPPVAGPSVFLFPPKPKDTLMISRTPEVTCVVVDVSHEDPEVQFNWYVDGVEVHNAKTKPREEQFNSTFRVVSVLTVVHQDWLNGKEYKCKVSNKGLPAPIEKTISKTKGQPREPQVYTLPPSREKMTKNQVSLTCLVKGFYPSDIAVEWESNGQPENNYKTTPPMLKSDGSFFLYSKLTVDKSRWQQGNVFSCSVMHEALHNHYTQKSLSLSPGK
heavy 2: QVQLVQSGAEVKKPGASVKISCKASGYSFTAYYIHWVKQAPGQGLEWIGYIAGYKDATNYNQKFKGRVTFTTDTSTSTAYMELRSLRSDDTAVYYCARDYDYDVGMDYWGQGTLVTVSSASTKGPSVFPLAPCSRSTSESTAALGCLVKDYFPEPVTVSWNSGALTSGVHTFPAVLQSSGLYSLSSVVTVPSSNFGTQTYTCNVDHKPSNTKVDKTVERKCCVECPPCPAPPVAGPSVFLFPPKPKDTLMISRTPEVTCVVVDVSHEDPEVQFNWYVDGVEVHNAKTKPREEQFNSTFRVVSVLTVVHQDWLNGKEYKCKVSNKGLPAPIEKTISKTKGQPREPQVYTLPPSREEMTKNQVSLTCLVEGFYPSDIAVEWESNGQPENNYKTTPPMLDSDGSFFLYSELTVDKSRWQQGNVFSCSVMHEALHNHYTQKSLSLSPGK
light: DIVMTQSPDSLAVSLGERATISCRASESVDNYGISFMKWFQQKPGQPPKLLIYAASNQGSGVPDRFSGSGSGTDFTLTISSLQAEDVAVYYCQQSKEVPWTFGGGTKVEIKRTVAAPSVIFPPSDEQLKSGTASVVCLLNNFYPREAKVQWKVDNALQSGNSQESVTEQDSKDSTYSLSSTLTLSKADYEKHKVYACEVTHQGLSSPVTKSFNRGEC
notes: as for B1

target: T1, biotin-DLL4-hFc (UniProt Q9NR61 27-522, limits assumed, biotinylated (site not stated)); assay: bispecific sandwich ELISA: antibody pre-incubated with 2 ug/ml biotin-DLL4-hFc, captured on VEGF-coated plate, detected with streptavidin-HRP
T1 construct: not shown: human Fc (hFc)
Procedure: (§1) FIG. 7. Bispecific antibody ELISA. Bispecific antibodies 219R45-MB-21M18, 219R45-MB-21R79, 219R45-MB-21R75, and 219R45-MB-21R83 were diluted in blocking buffer (lx PBS, 0.1% gelatin, 0.1% Polysorbate-20, pH 7.4) containing 2 μg/ml biotin-DLL4-hFc. The antibodies were serially diluted 3-fold from 500 ng/ml to 0.008 ng/ml. The antibody samples were incubated for 2 hours in blocking buffer containing the biotin-DLL4-hFc. After incubation, the antibody samples were transferred to a VEGF-coated assay plate (100 ul/well) and incubated for 2 hours. Streptavidin-HRP was added to each well and incubated for 1 hr. TMB substrate was added to the wells with a 10 minute color development and the reaction was stopped with 2M sulfuric acid. Absorbance was read at 450-650 nm and the data analyzed using the 4-parameter fit within the Softmax Pro analysis program.
as §1, with “VEGF (ATGEN, South Korea) was coated onto Nunc maxisorb plates at 2 ug/ml (100 μl/well) and incubated overnight at 2-8° C. Bispecific” for “FIG. 7. Bispecific antibody ELISA. Bispecific”, “to the” for “to a”, “Streptavidin-HRP (Jackson ImmunoResearch, West Grove, Pa.)” for “Streptavidin-HRP”, “analysis program (Molecular Devices, Sunnyvale, Calif.).” for “analysis program.”

binding, binds:
B1
B2
B3
B4
